Source: article PMC5397419
For at least one entry, the source does not settle the construct or the ends of the probe. Protein sequences can lack the tags named with them.

Biological target: T1, DnaA wild-type (Escherichia coli) (UniProt P03004)
T1 sequence: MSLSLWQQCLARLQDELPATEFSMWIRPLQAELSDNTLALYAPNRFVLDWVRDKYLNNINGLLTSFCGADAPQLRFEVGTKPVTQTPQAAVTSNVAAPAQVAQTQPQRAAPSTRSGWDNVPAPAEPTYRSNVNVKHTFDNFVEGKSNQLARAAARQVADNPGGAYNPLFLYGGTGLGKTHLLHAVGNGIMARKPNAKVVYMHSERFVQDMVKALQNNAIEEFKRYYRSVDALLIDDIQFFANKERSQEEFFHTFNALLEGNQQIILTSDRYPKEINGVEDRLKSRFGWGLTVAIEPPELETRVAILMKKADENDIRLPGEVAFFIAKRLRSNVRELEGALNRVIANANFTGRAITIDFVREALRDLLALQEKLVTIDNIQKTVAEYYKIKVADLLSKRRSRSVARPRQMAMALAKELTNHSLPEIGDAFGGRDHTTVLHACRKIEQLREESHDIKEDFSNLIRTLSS
Experiment: EMSA
Conditions: 2 mM ATP, 5 mM Mg acetate, EMSA oriC/PdnaA: 20 mM HEPES-KOH pH 8.0, 5 mM Mg acetate, 1 mM EDTA, 4 mM DTT, 0.2% Triton X-100, 5% glycerol, 0.5 mg/ml BSA, 20 C, recombinant protein, label: 5' FAM, probe letters rebuilt from the primers and the genome

| Sequence | binding result (0-2.4 pmol DnaA) | binding result |
| --- | --- | --- |
| CCCGGGCCGTGGATTCTACTCAACTTTGTCGGCTTGAGAAAGACCCGGGATCCTGGGTATTAAAAAGAAGATCTATTTATTTAGAGATCTGTTCTATTGTGATCTCTTATTAGGATCGCACTGCCCTGTGGATAACAAGGATCCGGCTTTTAAGATCAACAACCTGGAAAGGATCATTAACTGTGAATGATCGGTGATCCTGGACCGTATAAGCTGGGATCAGAATGAGGGGTTATACACAACTCAAAAACTGAACAACCGTTGTTCCTTGGATAACTACCGGTTGATCCAAGCTTCCTGACAGAGTTATCCACAGTAGATCGCACGATCTGTATACTTATTTGAGTAAATTAATCCACGATCCCAGCCATTCTTCTGCCGGATCTTCCGGAATGTCGTGATCAAGAATGTTGATCTTCAGTGTTTCGCCTGTCTGTTTTGCACCGGAATCTTTGAGTTCTGCCTCGAG (double strand) [oriC 469 bp (EMSA)] | binds | – |
| TGGTCATTAAATTTTCCAATATGCGGCGTAAATCGTGCCCGCCTCGCGGCAGGATCGTTTACACTTAGCGAGTTCTGGAAAGTCCTGTGGATAAATCGGGAAAATCTGTGAGAAACAGAAGATCTCTTGCGCAGTTTAGGCTATGATCCGCGGTCCCGATCGTTTTGCAGGATCTTGATCGGGCATATAACCGCAGACAGCGGTTCGTGCGTCACCCTCAAGCAGGGTCTTTTCGACGTACGTCAACAATCATGAATGTTTCAGCCTTAGTCATTATCGACTTTTGTTCGAGTGGAGTCCGCC (double strand) [dnaA promoter (PdnaA)] | – | binds |
